The values that follow come from PubChem BioAssay AID694 (Emory University Molecular Libraries Screening Center, 2007).

By UniProt entry, the sequences of proteins in these tests, tags left out.
UniProt P03372, whole entry, looked up: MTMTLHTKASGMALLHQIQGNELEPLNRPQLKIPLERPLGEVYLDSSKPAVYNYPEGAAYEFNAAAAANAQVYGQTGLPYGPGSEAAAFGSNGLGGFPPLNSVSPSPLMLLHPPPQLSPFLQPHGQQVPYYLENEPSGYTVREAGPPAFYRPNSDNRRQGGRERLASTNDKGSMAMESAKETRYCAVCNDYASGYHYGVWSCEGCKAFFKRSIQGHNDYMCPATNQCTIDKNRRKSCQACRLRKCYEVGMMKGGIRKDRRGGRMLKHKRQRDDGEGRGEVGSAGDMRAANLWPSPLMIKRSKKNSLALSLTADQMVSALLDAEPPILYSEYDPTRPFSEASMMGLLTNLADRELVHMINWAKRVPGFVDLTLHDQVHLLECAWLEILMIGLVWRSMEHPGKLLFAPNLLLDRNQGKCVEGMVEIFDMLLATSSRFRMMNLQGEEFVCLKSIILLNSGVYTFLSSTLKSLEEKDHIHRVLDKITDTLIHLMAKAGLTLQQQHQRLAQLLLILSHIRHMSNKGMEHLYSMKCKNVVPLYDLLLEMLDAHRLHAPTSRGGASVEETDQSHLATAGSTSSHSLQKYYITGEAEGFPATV

As usually defined, the inhibition is the drop in the measured response relative to a control, in per cent.

Where “and” joins values, the source holds several entries; their conditions need not be identical. Identical values can stand only once. The list shows a part of the results. Further columns of the screen follow, without active or inactive calls.

This assay deals with Estrogen receptor (Homo sapiens) (UniProt P03372). The assay is described as follows: ERα coactivator peptide binding inhibitors, primary screen, biochemical, LOPAC library, TR-FRET (AID 694).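 Note: receptor was agonist-bound with estradiol present during the assay.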 The following applies: TR-FRET ERalpha-coactivator peptide binding, at 15 µM, stronger effect = higher value. For orientation: TR-FRET usually uses a lanthanide donor and a delayed reading to cut background.
`NNC(=O)c1ccc(O)cc1`: the inhibition was -0.27%.
As for `NCCCP(=O)(O)O`, the inhibition is -1.98%.
With `CCNC(=O)[C@H]1O[C@@H](n2cnc3c(N)ncnc32)C(O)[C@H]1O` (some centres not stated), the inhibition stood at 11.7%.
On to `CNCCc1c[nH]c2ccc(O)cc12`, for which the inhibition came out at 0.81%.
As for `NNC(N)=O`, the inhibition stood at 0.51%.
As for `COC(=O)C1=CCCN(C)C1`, the figure is -0.07%; as for `N[C@H](CCCCCP(=O)(O)O)C(=O)O`, -3.22%; as for `CCn1cc(C(=O)O)c(=O)c2ccc(C)nc21`, 0.37%.
With `CC(C)(C)c1o[nH]c(=O)c1CC(N)C(=O)O` (configuration not stated), the inhibition is -9.31%.
As to `O=C1CCCN1CC#CCN1CCCC1`, the inhibition came to 1.79%.
As for `C[C@]12N[C@H](Cc3ccccc31)c1ccccc12`, the figure is -1.03%; as for `CCCN(CCC)C1CCc2cccc(O)c2C1` (configuration not stated), 3.38%.
Regarding `Cc1nccc2c1[nH]c1ccccc12`, the inhibition amounted to 5.26%.
Turning to `CCCN1CCc2cccc3c2[C@H]1Cc1ccc(O)c(O)c1-3`, the inhibition amounted to 6.96%.
As to `CN1CC[C@@]2(C)c3cc(O)ccc3N(C)C12` (some centres not stated), the inhibition is 7.88%.
As to `CCN(CC)c1ncnc2c1ncn2[C@@H]1O[C@H](COP(=O)(O)OP(=O)(O)C(Br)(Br)P(=O)(O)O)[C@@H](O)[C@H]1O`, the inhibition is -1.75%.
As for `COc1ccc2c(c[n+](C)c3c4cc5c(cc4ccc23)OCO5)c1OC`, the figure is -1.14%; as for `CNc1ccc2oc(C[C@H]3O[C@@]4(CC[C@H]3C)O[C@H]([C@H](C)C(=O)c3ccc[nH]3)[C@H](C)C[C@H]4C)nc2c1C(=O)O`, -1.36%; as for `c1ccc2c(c1)[I+]c1ccccc1-2`, -0.06%.
Then `CCCN1CCC[C@H](c2cccc(O)c2)C1`, with -1.27%.
As for `NC(=O)COc1c(F)cc(SCCNS(=O)(=O)c2ccccc2)cc1F`, the inhibition is -2.18%.
Then `C[N+]1(C)CCN(c2ccccc2)CC1`, with -0.43%; and `C[C@H](Cc1ccc2c(c1)OC(C(=O)O)(C(=O)O)O2)NC[C@H](O)c1cccc(Cl)c1`, with 1.61%.
Turning to `CCC1(c2ccc(N)cc2)CCC(=O)NC1=O` (configuration not stated), the inhibition is 1.33%.
For `N[C@@]1(C(=O)O)CC[C@@H](C(=O)O)C1`, the inhibition is -7.67%.
For `CN(C(=O)Cc1ccc(Cl)c(Cl)c1)C(CN1CCCC1)c1cccc(OCC(=O)O)c1` (configuration not stated), the inhibition was -1.36%.
For `NCCc1ccc(O)cc1`, the inhibition was -0.14%.
With `C[C@@H](N)Cc1cnc[nH]1`, the inhibition was -0.55%.
Turning to `Clc1cc(I)cc(Cl)c1NC1=NCCN1`, the inhibition came to 2.41%.
Consider `CCCN1CCC[C@@H]2Cc3[nH]ncc3C[C@H]21`, for which the inhibition was 3.3% and 4.2%.
As for `NCCc1c[nH]c2ccccc12`, the inhibition is -0.2%.
For the compound `CN1C2CCC1CC(OC(c1ccccc1)c1ccccc1N)C2` (configuration not stated), the inhibition was -3.14%.
In the case of `Cc1ccc(S(=O)(=O)N[C@@H](CCCCN)C(=O)CCl)cc1`, the inhibition was determined as 5.6%.
Take `CCCN1CCC[C@@H](c2cccc(O)c2)C1`: the inhibition was determined as 4.87%.
On to `Cc1cccc(C)c1NC1=NCCCS1`, for which the inhibition is 22.1%.
Then `Clc1ccc(N2CC3CCC(C2)N3)nn1`, with 2.32%; and `CCCCCCCCCCCCCC(=O)O[C@@H]1[C@@H](C)[C@@]2(O)[C@@H](C=C(CO)C[C@@]3(O)C(=O)C(C)=C[C@@H]23)C2C(C)(C)[C@@]21OC(C)=O` (some centres not stated), with 2.86%; and `C[N+]1(C)CCC(OC(=O)C(c2ccccc2)c2ccccc2)CC1`, with 1.05%.
Consider `CC(=O)NBr`, for which the inhibition was -0.97%.
Then `Cc1c2ccncc2c(C)c2c1[nH]c1ccccc12`, with 5.53%; and `CC(C)NP(=O)(NC(C)C)OP(=O)(NC(C)C)NC(C)C`, with 2.04%.
Then `C#CCN[C@H](C)Cc1ccccc1`, with -1.83%; and `CCCN(CCC)[C@@H]1CCc2cccc(O)c2C1`, with 2.93%; and `COc1cc(CCN)ccc1O`, with -3.7%.
For the compound `NCc1cc(=O)[nH]o1`, the inhibition is -0.13%.
`CCCN1CCc2cc(O)cc3c2[C@H]1Cc1ccc(O)c(O)c1-3`: the inhibition is 50%.
As to `CC1(C(=O)O)C2CCC(O2)C1(C)C(=O)O` (configuration not stated), the inhibition is -0.95%.
For the compound `CC(C)(C)NCC(O)c1ccccc1Cl` (configuration not stated), the inhibition is -0.23%.
With `Nc1ncnc2c1ncn2[C@@H]1O[C@H](COP(=O)(O)CP(=O)(O)OP(=O)(O)O)[C@H](O)C1O` (some centres not stated), the inhibition is -2.94%.
In the case of `CS(=N)(=O)CC[C@H](N)C(=O)O` (some centres not stated), the inhibition was determined as 2.39%.
For the compound `Ic1ccccc1CNC1C2CCN(CC2)C1C(c1ccccc1)c1ccccc1` (configuration not stated), the inhibition is -4.88%.
On to `COc1ccc2c(c1)/C(=C/c1cnc[nH]1)C(=O)N2`, for which the inhibition is -5.07%.
With `NCCc1c[nH]c2ccc(O)cc12`, the inhibition was -1.65%.
For the compound `CC(Cc1ccc(OCC(=O)O)cc1)NCC(O)c1cccc(Cl)c1` (configuration not stated), the inhibition is 0.47%.
Take `OC1CCCCC1N1CCC(c2ccccc2)CC1` (configuration not stated): the inhibition was -1.91%.
As for `O=[N+]([O-])c1cc(O)c(O)c([N+](=O)[O-])c1`, the inhibition stood at 5%.
`NCCc1ccc(S(=O)(=O)F)cc1`: the inhibition was -0.59%.
In the case of `C[C@H](N)CN1CCc2ccc(Br)cc21`, the inhibition is -1.78%.
Then `N[C@@H](Cn1ccc(=O)[nH]c1=O)C(=O)O`, with 2.46%; and `C=C(C)[C@H]1CN[C@H](C(=O)O)[C@H]1CC(=O)O`, with 2.9%.
As for `NC1CC1c1ccccc1` (configuration not stated), the inhibition came to 0.05%.
On to `CC12CCC3C(CCC4=C(O)C(=O)CCC43C)C1CCC2=O` (configuration not stated), for which the inhibition is -4.7%.
For `O=[N+]([O-])c1ccc2nc(N3CCNCC3)ccc2c1`, the inhibition was determined as 2.21%.
For `CCCN(CCC)CCc1c[nH]c2ccc(C(N)=O)cc12`, the inhibition turned out to be 3.38%.
Turning to `C=CCN1C[C@@H](C)N([C@H](c2ccc(C(=O)N(CC)CC)cc2)c2cccc(OC)c2)C[C@@H]1C`, the inhibition is -1.11%.
Turning to `COc1cc(C[C@@H](C)N)c(OC)cc1I`, the inhibition amounted to 2.84%.
Then `C=CCN1CC[C@]23c4c5ccc(O)c4O[C@H]2/C(=N/NC(=O)c2ccccc2)CC[C@@]3(O)[C@H]1C5`, with 31.7%.
Then `CC1=C[C@@H]2c3cccc4[nH]cc(c34)C[C@H]2N(C)C1`, with -1.61%.
Then `COc1ccc2c(c1)C13CCCCC1C(C2)N(C)CC3` (configuration not stated), with 1.39%; and `C[N+](C)(C)CC(=O)O`, with 12.1%.
As for `S=C(NC1CCCCC1)N1CCC(c2cnc[nH]2)CC1`, the inhibition amounted to 0.57%.
As to `NC(N)=NOCC[C@H](N)C(=O)O`, the inhibition is -2.47%.
Turning to `CNCCc1ccc(O)c(O)c1`, the inhibition was -1.81%.
As for `Oc1cc2c(cc1O)[C@H]1c3ccccc3CN[C@@H]1CC2`, the figure is 5.65%; as for `CN1CCC23CCCC[C@H]2C1Cc1ccc(O)cc13` (some centres not stated), -3.9%; as for `CCCN1CCC[C@@H]2Cc3nc(N)ncc3C[C@H]21`, 3.48%.
Then `N#CC(=Cc1ccc(O)c(O)c1)C(N)=S`, with 12.6%; and `Cn1cnc(CCN)c1`, with -0.47%; and `NC(Cn1oc(=O)[nH]c1=O)C(=O)O` (configuration not stated), with 2.99%.
Consider `CC1Cc2cc3c(cc2C(c2ccc(N)cc2)=NN1)OCO3` (configuration not stated), for which the inhibition is 1.51%.
With `CN1CCC(c2c[nH]c3ccc(O)cc23)CC1`, the inhibition is -1.65%.
On to `CC(C)[C@@]1(NC(=O)[C@@H]2C[C@@H]3c4cccc5[nH]cc(c45)C[C@H]3N(C)C2)O[C@@]2(O)[C@@H]3CCCN3C(=O)[C@H](Cc3ccccc3)N2C1=O`, for which the inhibition worked out at 0.11%.
`Oc1ccc2c3c1O[C@H]1c4[nH]c5ccccc5c4C[C@@]4(O)C(C2)N(CC2CC2)CCC314` (some centres not stated): the inhibition came to 1.45%.
In the case of `CC(N)Cc1c[nH]c2ccc(OCc3cccs3)cc12` (configuration not stated), the inhibition is -1.78%.
In the case of `COc1ccc(CNC(=O)/C=C/c2ccc3[nH]cc(CCN(C)C)c3c2)cc1`, the inhibition is 1.81%.
For the compound `NC(=O)c1ccc(OCC(O)CN2CC=C(c3ccc(F)cc3)CC2)cc1` (configuration not stated), the inhibition came out at 2.41%.
Consider `C[N+](C)(C)CC#CCN1CCCC1=O`, for which the inhibition is -6.75%.
`NC(=O)CN1CC(O)CC1=O` (configuration not stated): the inhibition is -4.04%.
As for `COc1cc(C=C(C#N)C#N)cc(O)c1O`, the figure is 0.97%; as for `Nc1ccncc1`, -3.1%; as for `COc1ccc(-n2nc(C(F)(F)F)cc2-c2ccc(Cl)cc2)cc1`, 6.58%.
Turning to `C[N+]1(C)CCOC(O)(c2ccc(-c3ccc(C4(O)C[N+](C)(C)CCO4)cc3)cc2)C1` (configuration not stated), the inhibition was determined as 4.41%.
For the compound `NCC(O)c1cc(O)c(O)cc1F` (configuration not stated), the inhibition stood at 27.1%.
Take `O=C(O)CCCc1ccc(N(CCCl)CCCl)cc1`: the inhibition was 6.41%.
For the compound `CCS(=O)(=O)Nc1cccc(C(=C2CCCCC2)c2cnc[nH]2)c1`, the inhibition is -2.88%.
As for `Cc1[nH]c2ccc(O)cc2c1CCN`, the figure is -1.03%; as for `C=CCN1CCc2cccc3c2[C@H]1Cc1ccc(O)c(O)c1-3`, 10.1%.
As to `Oc1ccc2c3c1O[C@H]1c4[nH]c5c(c4C[C@@]4(O)[C@@H](C2)N(CC2CC2)CC[C@]314)C[C@@]1(O)[C@H]2Cc3ccc(O)c4c3[C@@]1(CCN2CC1CC1)[C@H]5O4`, the inhibition was determined as 4.31%.
As to `CCCCc1ccc(C(=O)O)nc1`, the inhibition is -1.68%.
For the compound `C[N+](C)(C)CC#CCOC(=O)Nc1cccc(Cl)c1`, the inhibition was -1.75%.
As for `CC(N)[C@H](O)c1ccc(O)c(O)c1` (some centres not stated), the figure is -1.34%.
Take `Cc1ncc(CNC(=O)N(CCCl)N=O)c(N)n1`: the inhibition is 1.87%.
As to `COc1ccc2[nH]cc(CCN)c2c1`, the inhibition was found to be 2.32%.
As for `CC[C@@]1(O)C(=O)OCc2c1cc1n(c2=O)Cc2cc3ccccc3nc2-1`, the figure is 7.41%; as for `C[C@]12Cc3cn4c(nc3C=C1CCC1C2CC[C@@]2(C)[C@H]1CC[C@@]2(O)C#N)nc1ccccc14` (some centres not stated), -5.08%; as for `Clc1cccc(N2CCNCC2)c1`, -6.81%.
Then `O=C1NCN(c2ccccc2)C12CCN(CC1COc3ccccc3O1)CC2` (configuration not stated), with 0.38%; and `c1ccc2nc(N3CCNCC3)ccc2c1`, with -0.06%.
Take `NC(=NCCC[C@H](N)C(=O)O)N[N+](=O)[O-]`: the inhibition was 1.03%.
Consider `C[C@]12CC[C@H](OS(=O)(=O)O)CC1=CC[C@@H]1[C@@H]2CC[C@]2(C)C(=O)CC[C@@H]12`, for which the inhibition was found to be 0.46%.
Consider `Cc1c(C(=O)c2cccc3ccccc23)c2cccc3c2n1[C@H](CN1CCOCC1)CO3`, for which the inhibition came to 2.28%.
With `CC(CCc1ccccc1)NC(C)C(O)c1ccc(O)cc1` (configuration not stated), the inhibition was -0.12%.
As to `C#CCN(C)[C@@H](C)Cc1ccccc1`, the inhibition was -2.35%.
With `CC(=O)[C@H]1CCC2C3CC[C@H]4C[C@H](O)CC[C@]4(C)C3CC[C@@]21C` (some centres not stated), the inhibition is 2.7%.
`CC(C)c1cccc(C(C)C)c1O`: the inhibition was -0.56%.
With `Cc1nc(-c2ccc(-c3ccc(C(=O)N4CCc5cc6c(cc54)C4(CCN(C)CC4)CO6)cc3)c(C)c2)no1`, the inhibition was determined as 6.5%.
With `OCc1cnc[nH]1`, the inhibition is -3.48%.
On to `N#CC(C#N)=Cc1cc(O)c(O)c(O)c1`, for which the inhibition is 10.5%.
Consider `CN1C[C@H](CNC(=O)OCc2ccccc2)C[C@@H]2c3cccc4c3c(cn4C)C[C@H]21`, for which the inhibition was -0.71%.
With `CCN1C[C@]2(C)CC[C@H](O)[C@@]34C5C[C@@H]6[C@@H](OC)C[C@@](O)(C5[C@H]6O)[C@@H](CC23)C14` (some centres not stated), the inhibition is -3.6%.
As to `C[C@]12CC[C@H](O)CC1=CC[C@@H]1[C@@H]2CC[C@]2(C)C(=O)CC[C@@H]12`, the inhibition amounted to 0.16%.
As for `CC[C@@H](CO)NC(=O)[C@@H]1C=C2c3cccc4c3c(cn4C)C[C@H]2N(C)C1`, the figure is 1.21%.
